# Measurements reported in the supplement of paper PMC10849652.
# Protein sequences, listed by entry. Tags and fused reporters are not part of them. Lines headed by an entry give the natural chain unless they say otherwise; changes in a name come on top.
# UniProt P30038: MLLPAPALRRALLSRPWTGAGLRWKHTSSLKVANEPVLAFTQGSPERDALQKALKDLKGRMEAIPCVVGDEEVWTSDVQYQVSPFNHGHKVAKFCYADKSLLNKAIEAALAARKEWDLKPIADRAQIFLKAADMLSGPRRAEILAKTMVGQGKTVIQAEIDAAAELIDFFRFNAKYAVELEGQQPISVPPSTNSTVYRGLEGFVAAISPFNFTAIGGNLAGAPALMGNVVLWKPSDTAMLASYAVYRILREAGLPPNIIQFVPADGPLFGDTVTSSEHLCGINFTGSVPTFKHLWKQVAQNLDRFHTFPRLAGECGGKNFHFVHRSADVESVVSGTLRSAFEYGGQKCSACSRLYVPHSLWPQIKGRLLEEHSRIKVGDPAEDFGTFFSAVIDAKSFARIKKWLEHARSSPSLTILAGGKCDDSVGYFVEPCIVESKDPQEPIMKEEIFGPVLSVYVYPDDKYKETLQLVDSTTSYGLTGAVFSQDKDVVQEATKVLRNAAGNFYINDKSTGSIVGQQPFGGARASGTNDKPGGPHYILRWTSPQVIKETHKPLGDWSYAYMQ
# UniProt Q9BVK2: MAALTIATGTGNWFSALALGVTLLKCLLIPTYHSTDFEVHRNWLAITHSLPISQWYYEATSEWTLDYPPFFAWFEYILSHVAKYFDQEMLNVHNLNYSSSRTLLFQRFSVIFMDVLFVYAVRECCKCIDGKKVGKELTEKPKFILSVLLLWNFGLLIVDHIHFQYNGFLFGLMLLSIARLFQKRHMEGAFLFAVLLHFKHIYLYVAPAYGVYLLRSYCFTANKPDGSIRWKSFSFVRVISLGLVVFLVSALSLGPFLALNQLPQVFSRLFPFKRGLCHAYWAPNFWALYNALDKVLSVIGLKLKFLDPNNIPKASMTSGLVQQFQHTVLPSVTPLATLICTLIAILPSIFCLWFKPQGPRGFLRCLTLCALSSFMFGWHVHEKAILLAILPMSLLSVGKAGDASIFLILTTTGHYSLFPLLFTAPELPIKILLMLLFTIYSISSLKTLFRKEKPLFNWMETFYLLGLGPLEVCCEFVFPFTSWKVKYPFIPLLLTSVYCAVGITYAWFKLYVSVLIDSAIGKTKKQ
# UniProt P20073: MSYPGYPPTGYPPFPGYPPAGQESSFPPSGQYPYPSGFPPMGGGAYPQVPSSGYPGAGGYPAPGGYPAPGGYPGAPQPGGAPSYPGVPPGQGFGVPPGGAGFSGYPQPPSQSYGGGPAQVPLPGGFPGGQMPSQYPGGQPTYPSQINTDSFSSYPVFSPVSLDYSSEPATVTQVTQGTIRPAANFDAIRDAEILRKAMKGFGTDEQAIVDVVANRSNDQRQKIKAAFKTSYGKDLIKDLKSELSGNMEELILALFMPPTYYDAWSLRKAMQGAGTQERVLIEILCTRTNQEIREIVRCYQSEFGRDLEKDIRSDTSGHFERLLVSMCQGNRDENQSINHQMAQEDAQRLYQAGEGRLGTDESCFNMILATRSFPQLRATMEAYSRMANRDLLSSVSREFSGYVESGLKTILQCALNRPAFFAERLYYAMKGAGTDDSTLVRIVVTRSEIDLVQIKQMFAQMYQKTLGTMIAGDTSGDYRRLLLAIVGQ
# UniProt Q6ZTN6: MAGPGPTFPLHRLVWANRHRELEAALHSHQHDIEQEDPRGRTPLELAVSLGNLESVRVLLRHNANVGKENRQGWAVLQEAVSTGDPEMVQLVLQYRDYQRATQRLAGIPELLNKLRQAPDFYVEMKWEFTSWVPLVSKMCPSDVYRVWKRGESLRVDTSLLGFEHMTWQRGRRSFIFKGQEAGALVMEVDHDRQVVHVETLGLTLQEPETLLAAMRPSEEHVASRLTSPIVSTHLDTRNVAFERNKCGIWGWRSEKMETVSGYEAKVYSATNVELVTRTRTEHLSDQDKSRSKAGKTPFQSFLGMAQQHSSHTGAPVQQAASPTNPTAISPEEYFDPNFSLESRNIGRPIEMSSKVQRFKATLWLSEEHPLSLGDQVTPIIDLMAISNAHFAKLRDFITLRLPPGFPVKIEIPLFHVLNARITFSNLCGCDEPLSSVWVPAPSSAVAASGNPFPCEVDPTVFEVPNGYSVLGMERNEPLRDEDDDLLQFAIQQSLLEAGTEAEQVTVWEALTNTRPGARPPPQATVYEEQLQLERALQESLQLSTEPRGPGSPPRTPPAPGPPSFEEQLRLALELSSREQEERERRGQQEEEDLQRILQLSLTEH
# UniProt Q8WVL7: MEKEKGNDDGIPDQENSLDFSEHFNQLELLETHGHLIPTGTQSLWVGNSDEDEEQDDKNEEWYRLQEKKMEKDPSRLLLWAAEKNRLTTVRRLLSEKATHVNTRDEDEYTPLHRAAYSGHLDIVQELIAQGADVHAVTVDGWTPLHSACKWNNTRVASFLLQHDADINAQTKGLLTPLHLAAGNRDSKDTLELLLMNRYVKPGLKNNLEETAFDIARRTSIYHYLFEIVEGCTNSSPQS
# UniProt P53680: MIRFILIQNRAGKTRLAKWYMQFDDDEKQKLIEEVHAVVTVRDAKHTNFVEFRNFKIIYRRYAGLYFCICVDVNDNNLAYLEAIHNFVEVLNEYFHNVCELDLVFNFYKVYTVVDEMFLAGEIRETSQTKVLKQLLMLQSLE
# UniProt Q8IV38: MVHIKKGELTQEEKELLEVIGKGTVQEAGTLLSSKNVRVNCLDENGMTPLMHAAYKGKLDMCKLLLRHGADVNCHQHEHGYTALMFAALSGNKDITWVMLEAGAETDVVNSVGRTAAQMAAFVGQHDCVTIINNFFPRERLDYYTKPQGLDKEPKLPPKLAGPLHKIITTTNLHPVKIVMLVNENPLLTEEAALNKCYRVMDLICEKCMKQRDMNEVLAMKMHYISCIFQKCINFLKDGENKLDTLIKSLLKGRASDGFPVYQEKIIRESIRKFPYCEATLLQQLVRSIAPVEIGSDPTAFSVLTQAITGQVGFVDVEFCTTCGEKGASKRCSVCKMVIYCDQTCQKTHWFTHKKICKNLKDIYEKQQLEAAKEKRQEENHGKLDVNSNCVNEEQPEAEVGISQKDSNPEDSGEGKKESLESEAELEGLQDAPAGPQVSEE
# UniProt P56377: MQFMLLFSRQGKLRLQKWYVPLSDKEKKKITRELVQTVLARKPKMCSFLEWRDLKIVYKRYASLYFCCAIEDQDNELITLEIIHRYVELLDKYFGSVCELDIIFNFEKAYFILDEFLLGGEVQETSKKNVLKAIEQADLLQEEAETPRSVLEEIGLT
# UniProt P13716: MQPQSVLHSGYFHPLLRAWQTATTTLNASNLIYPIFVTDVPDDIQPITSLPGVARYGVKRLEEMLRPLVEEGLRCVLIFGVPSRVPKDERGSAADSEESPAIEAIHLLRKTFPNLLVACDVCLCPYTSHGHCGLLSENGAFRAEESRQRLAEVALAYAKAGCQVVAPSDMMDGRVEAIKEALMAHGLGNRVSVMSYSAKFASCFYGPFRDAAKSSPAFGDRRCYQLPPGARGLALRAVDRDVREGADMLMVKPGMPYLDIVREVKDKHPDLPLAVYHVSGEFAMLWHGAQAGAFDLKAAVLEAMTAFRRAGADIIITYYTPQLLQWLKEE
# UniProt P31751: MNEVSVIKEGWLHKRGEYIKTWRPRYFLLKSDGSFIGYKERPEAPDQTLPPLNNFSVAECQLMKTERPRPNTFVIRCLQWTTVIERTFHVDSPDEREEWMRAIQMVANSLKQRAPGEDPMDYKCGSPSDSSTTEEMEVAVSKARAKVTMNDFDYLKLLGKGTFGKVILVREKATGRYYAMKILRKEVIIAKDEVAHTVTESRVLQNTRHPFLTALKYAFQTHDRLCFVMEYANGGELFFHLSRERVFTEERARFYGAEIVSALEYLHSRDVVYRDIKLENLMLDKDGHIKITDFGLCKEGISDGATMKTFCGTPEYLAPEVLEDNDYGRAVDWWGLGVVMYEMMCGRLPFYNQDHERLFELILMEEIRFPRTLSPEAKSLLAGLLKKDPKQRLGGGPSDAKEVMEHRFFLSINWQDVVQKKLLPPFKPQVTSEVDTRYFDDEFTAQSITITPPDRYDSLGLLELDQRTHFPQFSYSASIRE
# UniProt Q9NW15: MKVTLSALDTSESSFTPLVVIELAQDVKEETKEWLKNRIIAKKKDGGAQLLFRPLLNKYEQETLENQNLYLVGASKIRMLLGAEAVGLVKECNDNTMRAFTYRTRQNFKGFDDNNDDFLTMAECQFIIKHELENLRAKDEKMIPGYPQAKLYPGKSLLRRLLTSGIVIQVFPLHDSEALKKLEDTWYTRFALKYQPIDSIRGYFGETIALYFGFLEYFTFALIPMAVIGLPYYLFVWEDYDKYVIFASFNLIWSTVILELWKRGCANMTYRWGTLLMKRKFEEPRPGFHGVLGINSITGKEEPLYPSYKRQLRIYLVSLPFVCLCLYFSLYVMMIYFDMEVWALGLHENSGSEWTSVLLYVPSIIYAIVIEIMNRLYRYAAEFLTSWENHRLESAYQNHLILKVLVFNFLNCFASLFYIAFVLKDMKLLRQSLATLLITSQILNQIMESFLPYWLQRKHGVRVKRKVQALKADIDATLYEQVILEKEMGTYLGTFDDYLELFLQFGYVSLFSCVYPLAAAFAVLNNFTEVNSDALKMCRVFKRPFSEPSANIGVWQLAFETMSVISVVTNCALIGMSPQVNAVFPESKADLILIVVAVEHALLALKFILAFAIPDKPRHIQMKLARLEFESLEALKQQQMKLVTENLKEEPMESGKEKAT
# UniProt Q96BT7: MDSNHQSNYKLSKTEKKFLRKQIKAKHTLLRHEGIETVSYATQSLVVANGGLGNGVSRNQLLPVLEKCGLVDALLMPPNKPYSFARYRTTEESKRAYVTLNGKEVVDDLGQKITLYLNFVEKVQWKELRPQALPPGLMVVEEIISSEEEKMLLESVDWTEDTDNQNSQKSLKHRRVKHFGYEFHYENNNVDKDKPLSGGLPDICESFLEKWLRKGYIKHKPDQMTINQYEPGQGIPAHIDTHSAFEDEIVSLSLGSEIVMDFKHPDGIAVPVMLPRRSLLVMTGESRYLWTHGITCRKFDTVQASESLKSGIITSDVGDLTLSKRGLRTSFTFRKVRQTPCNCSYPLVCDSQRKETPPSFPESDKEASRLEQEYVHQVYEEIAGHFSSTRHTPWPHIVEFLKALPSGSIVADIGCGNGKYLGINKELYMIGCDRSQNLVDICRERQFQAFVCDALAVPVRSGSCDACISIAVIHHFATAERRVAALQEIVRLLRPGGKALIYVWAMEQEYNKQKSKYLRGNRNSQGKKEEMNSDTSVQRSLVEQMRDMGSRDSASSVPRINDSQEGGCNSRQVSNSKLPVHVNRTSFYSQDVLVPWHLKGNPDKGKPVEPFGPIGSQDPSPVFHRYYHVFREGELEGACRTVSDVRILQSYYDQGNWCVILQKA
# UniProt O94788: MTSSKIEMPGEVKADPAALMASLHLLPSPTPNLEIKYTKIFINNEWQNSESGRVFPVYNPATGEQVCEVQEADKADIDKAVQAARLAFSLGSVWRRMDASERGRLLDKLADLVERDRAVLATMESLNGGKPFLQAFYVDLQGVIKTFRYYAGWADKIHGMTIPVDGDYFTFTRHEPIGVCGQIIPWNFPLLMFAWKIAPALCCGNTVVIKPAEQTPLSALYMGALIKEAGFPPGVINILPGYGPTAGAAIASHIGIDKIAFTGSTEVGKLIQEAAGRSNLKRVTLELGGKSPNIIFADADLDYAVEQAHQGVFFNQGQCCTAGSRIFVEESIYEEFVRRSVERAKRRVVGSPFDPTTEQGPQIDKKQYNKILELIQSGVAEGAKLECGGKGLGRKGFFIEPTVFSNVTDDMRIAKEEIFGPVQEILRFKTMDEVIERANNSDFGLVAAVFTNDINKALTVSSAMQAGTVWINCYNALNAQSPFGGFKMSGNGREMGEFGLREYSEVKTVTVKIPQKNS
# UniProt Q96CW1: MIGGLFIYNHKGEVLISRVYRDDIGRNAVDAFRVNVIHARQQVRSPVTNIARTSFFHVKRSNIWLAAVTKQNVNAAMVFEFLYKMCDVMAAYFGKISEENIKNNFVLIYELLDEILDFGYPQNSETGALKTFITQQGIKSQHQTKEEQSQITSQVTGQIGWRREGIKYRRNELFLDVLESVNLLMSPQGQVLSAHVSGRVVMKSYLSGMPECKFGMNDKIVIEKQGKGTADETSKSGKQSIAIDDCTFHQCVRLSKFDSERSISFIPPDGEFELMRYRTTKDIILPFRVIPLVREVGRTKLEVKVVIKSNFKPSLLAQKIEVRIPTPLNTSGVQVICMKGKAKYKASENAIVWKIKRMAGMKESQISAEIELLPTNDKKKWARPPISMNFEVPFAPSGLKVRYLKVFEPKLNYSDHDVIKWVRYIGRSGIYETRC
# Some of the results follow.
# Compound: O=C(CCCCCCC(=O)Nc1ccccc1)NO [vorinostat]
# Test: log2 fold change, soluble protein after heating vs DMSO (PISA); higher = thermal stabilisation; K562 lysate, 10 uM; active = over 0.2 and 3.5 SD of the protein, either way, in both replicates (recomputed)
# Summary of the method: (§1)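 A 30 min treatment with 10 μM compound was applied to crude K562 extract at 1 mg/mL protein in PBS pH 7.4 with 1 mM MgCl2. Heating for 3 min spanned 48°C-58°C, after which aliquots were pooled, adjusted to 0.5% NP-40 at 4°C and spun at 21,000xg for 90 min. TMTpro 16plex LC-MS/MS of the supernatant, with channel sums equalised, gave values recorded as log-two fold change in thermal stability against solvent controls, from duplicates.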
row,Target,log2 fold change
1,ALDH4A1 (UniProt P30038),inactive: -0.148
2,ALG8 (UniProt Q9BVK2),inactive: -0.05
3,AP3M1 (UniProt Q9Y2T2),inactive: -0.1
4,ALS2 (UniProt Q96Q42),inactive: -0.209
5,ANXA7 (UniProt P20073),inactive: -0.044
6,ALKBH2 (UniProt Q6NS38),inactive: -0.219
7,ANKRD13D isoform 3 (UniProt Q6ZTN6),inactive: 0.079
8,AMD1 (UniProt P17707),inactive: -0.076
9,AKT1S1 isoform 3 (UniProt Q96B36),inactive: 0.067
10,ANO6 (UniProt Q4KMQ2),inactive: -0.118
11,ANAPC2 (UniProt Q9UJX6),inactive: -0.134
12,ANP32E (UniProt Q9BTT0),inactive: 0.217
13,ANKRD49 (UniProt Q8WVL7),inactive: 0.093
14,AP2S1 (UniProt P53680),inactive: -0.02
15,ANXA2 isoform 2 (UniProt P07355),inactive: 0.023
16,ANKRD28 (UniProt O15084),inactive: -0.081
17,ALDH16A1 (UniProt Q8IZ83),inactive: 0.035

row,Target,log2 fold change
1,ANKMY2 (UniProt Q8IV38),inactive: -0.017
2,AP1G1 isoform 2 (UniProt O43747),inactive: 0.021
3,ANKRD52 (UniProt Q8NB46),active: -0.491
4,ALDH2 (UniProt P05091),active: 0.627
5,ANK3 (UniProt Q12955),inactive: -0.095
6,AP1S2 isoform 2 (UniProt P56377),inactive: 0.021
7,ANXA6 (UniProt P08133),inactive: -0.016
8,ALAD (UniProt P13716),inactive: 0.095
9,AKT2 (UniProt P31751),inactive: -0.175
10,ANKS1A (UniProt Q92625),inactive: -0.095
11,ANO10 (UniProt Q9NW15),inactive: 0.206
12,ANKRD29 (UniProt Q8N6D5),inactive: 0.051
13,ALKBH8 isoform 4 (UniProt Q96BT7),inactive: 0.083
14,ALDH1A2 (UniProt O94788),inactive: 0.21
15,ANKHD1 isoform 6 (UniProt Q8IWZ3),inactive: -0.139
16,ALDOA (UniProt P04075),inactive: 0.13
17,AP2M1 (UniProt Q96CW1),inactive: 0.035

# Compound: O=C(O)c1ccc2c(c1)nc(Nc1cccc(Cl)c1)c1ccncc12 [silmitasertib]
# Test: as above
# Summary of the method: as §1
row,Target,log2 fold change
1,ALDH4A1 (UniProt P30038),inactive: 0.068
2,ALG8 (UniProt Q9BVK2),inactive: 0.063
3,AP3M1 (UniProt Q9Y2T2),inactive: -0.005
4,ALS2 (UniProt Q96Q42),inactive: 0.011
5,ANXA7 (UniProt P20073),inactive: -0.003
6,ALKBH2 (UniProt Q6NS38),inactive: -0.014
7,ANKRD13D isoform 3 (UniProt Q6ZTN6),inactive: -0.118
8,AMD1 (UniProt P17707),inactive: 0.062
9,AKT1S1 isoform 3 (UniProt Q96B36),inactive: 0.015
10,ANO6 (UniProt Q4KMQ2),inactive: 0.027
11,ANAPC2 (UniProt Q9UJX6),inactive: 0.003
12,ANP32E (UniProt Q9BTT0),inactive: -0.029
13,ANKRD49 (UniProt Q8WVL7),inactive: -0.049
14,AP2S1 (UniProt P53680),inactive: 0.033
15,ANXA2 isoform 2 (UniProt P07355),inactive: -0.015
16,ANKRD28 (UniProt O15084),inactive: 0.011
17,ALDH16A1 (UniProt Q8IZ83),inactive: 0.015

row,Target,log2 fold change
1,ANKMY2 (UniProt Q8IV38),inactive: 0.018
2,AP1G1 isoform 2 (UniProt O43747),inactive: 0.023
3,ANKRD52 (UniProt Q8NB46),inactive: 0.063
4,ALDH2 (UniProt P05091),inactive: 0.009
5,ANK3 (UniProt Q12955),inactive: 0.004
6,AP1S2 isoform 2 (UniProt P56377),inactive: 0.065
7,ANXA6 (UniProt P08133),inactive: 0.018
8,ALAD (UniProt P13716),inactive: -0.024
9,AKT2 (UniProt P31751),inactive: 0.011
10,ANKS1A (UniProt Q92625),inactive: -0.009
11,ANO10 (UniProt Q9NW15),inactive: 0.005
12,ANKRD29 (UniProt Q8N6D5),inactive: 0.029
13,ALKBH8 isoform 4 (UniProt Q96BT7),inactive: -0.094
14,ALDH1A2 (UniProt O94788),inactive: 0.006
15,ANKHD1 isoform 6 (UniProt Q8IWZ3),inactive: 0.025
16,ALDOA (UniProt P04075),inactive: -0.01
17,AP2M1 (UniProt Q96CW1),inactive: -0.012
